Laboratory results published in PMC10702427, “Effects of Dimerization on the Deacylase Activities of Human SIRT2” (Biochemistry, 2023).
Results are given in words; binding and its absence hold for the method and conditions named. Binding seen in cells or lysates may run through a third protein. Some results given as binding are weak or reduced against the parent protein; the word gives no strength. Where a sequence is shown, tags or fusion partners need not be part of it.

What was measured:
[1] = target: T1, full-length SIRT2 fused to split GFP fragments (two co-expressed constructs) (human), Q8IXJ6; test: split reporter; split GFP; two full-length SIRT2 fusions cotransfected in A549 cells, fixed 48 h after transfection, GFP/DAPI fluorescence; also 6 h with 200 μM ascorbyl palmitate or 0.2% DMSO; details: remark: other sources report otherwise
T1 chain: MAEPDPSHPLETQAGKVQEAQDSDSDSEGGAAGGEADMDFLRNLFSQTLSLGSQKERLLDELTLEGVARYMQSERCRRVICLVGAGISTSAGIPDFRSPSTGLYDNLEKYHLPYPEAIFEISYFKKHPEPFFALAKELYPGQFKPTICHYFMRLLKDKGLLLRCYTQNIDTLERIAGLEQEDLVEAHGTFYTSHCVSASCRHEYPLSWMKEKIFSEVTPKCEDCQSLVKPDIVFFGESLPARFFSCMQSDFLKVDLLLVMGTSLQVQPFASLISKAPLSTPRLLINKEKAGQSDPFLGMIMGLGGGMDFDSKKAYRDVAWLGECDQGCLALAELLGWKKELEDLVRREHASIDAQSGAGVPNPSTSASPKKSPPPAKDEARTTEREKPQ

[2] = target: full-length SIRT2(Q142A/E340A) fused to split GFP fragments (two co-expressed constructs) (human) (UniProt Q8IXJ6); test: as above

B1: full-length SIRT2 fused to split GFP fragments (two co-expressed constructs), Q8IXJ6-1 1-389 (enzyme)
chain: MAEPDPSHPLETQAGKVQEAQDSDSDSEGGAAGGEADMDFLRNLFSQTLSLGSQKERLLDELTLEGVARYMQSERCRRVICLVGAGISTSAGIPDFRSPSTGLYDNLEKYHLPYPEAIFEISYFKKHPEPFFALAKELYPGQFKPTICHYFMRLLKDKGLLLRCYTQNIDTLERIAGLEQEDLVEAHGTFYTSHCVSASCRHEYPLSWMKEKIFSEVTPKCEDCQSLVKPDIVFFGESLPARFFSCMQSDFLKVDLLLVMGTSLQVQPFASLISKAPLSTPRLLINKEKAGQSDPFLGMIMGLGGGMDFDSKKAYRDVAWLGECDQGCLALAELLGWKKELEDLVRREHASIDAQSGAGVPNPSTSASPKKSPPPAKDEARTTEREKPQ
For B1, the binding [1] was “binds”.

B2: full-length SIRT2(Q142A/E340A) fused to split GFP fragments (two co-expressed constructs) (enzyme, UniProt Q8IXJ6-1 1-389)
chain: MAEPDPSHPLETQAGKVQEAQDSDSDSEGGAAGGEADMDFLRNLFSQTLSLGSQKERLLDELTLEGVARYMQSERCRRVICLVGAGISTSAGIPDFRSPSTGLYDNLEKYHLPYPEAIFEISYFKKHPEPFFALAKELYPGAFKPTICHYFMRLLKDKGLLLRCYTQNIDTLERIAGLEQEDLVEAHGTFYTSHCVSASCRHEYPLSWMKEKIFSEVTPKCEDCQSLVKPDIVFFGESLPARFFSCMQSDFLKVDLLLVMGTSLQVQPFASLISKAPLSTPRLLINKEKAGQSDPFLGMIMGLGGGMDFDSKKAYRDVAWLGECDQGCLALAELLGWKKALEDLVRREHASIDAQSGAGVPNPSTSASPKKSPPPAKDEARTTEREKPQ
B2 was tested, and the binding [2] was “no binding”.
